Measurements taken from patent US20210002611A1, “IMPROVED ALPHA-BETA T PROCESSED CELL PRODUCTION METHOD” (OSAKA UNIVERSITY, priority 2018, published 2021).
For at least one compound, name, drawing or mass did not settle the structure.

System: CD8+ T cells of αβ T processed cells
Assay: Distribution analysis of CD8+ T-cell subset using flow cytometry
Format: cell-based, human
Conditions: oxamate (2 mM) or bromo pyruvate (10 μM) added in place of 2DG

**Q.** Which “Phenotype of CD8+ T-cell subset (CCR7/CD45RO)” value does the source give for NC(=O)C(=O)O [oxamate] here?
**A.** the phenotype that was observed when treated with 2-DG was not indicated
